PubChem BioAssay AID662 (National Center for Advancing Translational Sciences (NCATS), 2007)
Where “and” joins values, the source holds several entries; their conditions need not be identical. Equal entries are not always repeated. Some of the results follow. Further columns of the screen follow, without active or inactive calls. Compounds called inactive in the main read-out are mostly missing here. The note in brackets gives the kind of curve behind each potency; many fits are weak.

Test: Cell signaling CRE-BLA (Fsk stim)
Conditions: CHO CRE-bla reporter (cAMP response element driving beta-lactamase), forskolin EC10, beta-lactamase ratio; measured here: 460 nm blue channel
In short: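 qHTS titration format; CRE-bla CHO reporter; stimulus EC10 NKH 477, a water-soluble forskolin. Read: CCF4 460/530 nm ratio. Potency expressed as AC50 for activators or inhibitors.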

Structure (SMILES)	AC50
O=C(CN1CCN(c2ccccc2)CC1)N1CCN(c2ccccc2)CC1	10 µM [falling, partial curve]
Cc1cccc(N2CCN(c3cccc(C)c3)C2c2cccnc2)c1	25.1 µM [falling, single point]
COc1cc(-c2noc(-c3ccco3)n2)cc(OC)c1OC	10 µM [rising, partial curve]
O=C1CCCN1CC(CN1CCOCC1)Sc1nc2ccccc2c(=O)n1-c1ccccc1 (stereo unspecified)	12.6 µM [rising, single point]
COCCn1c(=O)c(-c2cc(F)cc(F)c2)nc2cnc(Nc3cccc(OC)c3)nc21	1.58 µM [rising, full curve]
Cc1ccc(C)c2nc(N3CCCC3)c(C#N)cc12	10 µM [rising, partial curve]
Cc1cc(NC(=O)c2c(F)c(F)c(F)c(F)c2F)no1	25.1 µM [falling, single point]
COc1ccc(-c2nnc(SC(C)C(=O)Nc3nccs3)n2-c2ccccc2)cc1OC (stereo unspecified)	10 µM [rising, partial curve]
Cc1nc(NCCN2CCOCC2)c2oc3ccccc3c2n1	7.94 µM [falling, partial curve]
Cc1nnsc1-c1nc2ccccc2[nH]1	25.1 µM [rising, single point]
CN1C(=O)c2ccc(N3CCCC3)cc2C1=O	10 µM [rising, single point]
CCOC(=O)c1c(C)[nH]c(C(=O)CN2CCOCC2)c1C	25.1 µM [rising, single point]
CCCc1nc2n[nH]c(N)c2c2c1CCC2	0.631 µM [rising, full curve, poor fit]
CN(C)CCCN1c2ccccc2CCc2ccc(Cl)cc21	31.6 µM [falling, single point]
CC(=O)N1CCN(C(C)=O)C1c1ccccc1	0.398 µM [rising, partial curve]
CN(C)c1ncc2nc(-c3cc(F)cc(F)c3)c(=O)n(Cc3ccc(F)cc3)c2n1	3.98 µM [rising, partial curve]
O=c1c2[nH]c3ccc(Cl)cc3c2ncn1Cc1ccccn1	10 µM [rising, partial curve]
Cc1csc(NC(=O)CSc2nc(C(C)C)nc3c2c(=O)n(C)c(=O)n3C)n1	3.16 µM [rising, full curve]
COc1cccc(NC(=O)Cc2ccccc2)c1	0.794 µM [rising, full curve, poor fit]
Cc1c(C(=O)NCCCN2CCOCC2)sc2nc(-c3ccccc3)cn12	10 µM [rising, partial curve]
O=c1cc(N2CCN(Cc3ccccc3)CC2)[nH]c(=O)n1-c1cccc(C(F)(F)F)c1	7.94 µM [rising, partial curve]
CC(=O)O[C@H]1CC[C@@]2(C)C(=CC[C@@H]3[C@H]4CC[C@@H]([C@H](C)C(=O)O)[C@]4(C)CC[C@H]32)C1	5.01 µM [rising, single point]

Quoted at random: 2 entries already listed, in no set order.
Structure (SMILES)	AC50
Cc1csc(NC(=O)CSc2nc(C(C)C)nc3c2c(=O)n(C)c(=O)n3C)n1	3.16 µM [rising, full curve]
CCCc1nc2n[nH]c(N)c2c2c1CCC2	0.631 µM [rising, full curve, poor fit]

Continuation.

Structure (SMILES)	AC50
Cn1c(C(=O)Nc2ccc3c(c2)OCO3)cc2c(=O)n(C)c3ccccc3c21	1.58 µM [rising, full curve]
C=CCn1c(SCc2cc(=O)n3ccsc3n2)nc2scc(C3CC3)c2c1=O	0.398 µM [rising, partial curve]
Cc1cc(NC(=O)c2ccc(S(=O)(=O)N3CCCC3)cc2)nc2c1c(=O)oc1ccccc12	6.31 µM [rising, full curve, poor fit]
CC1(C)Cc2c(sc3c2c(=N)n(Cc2ccco2)c(=O)n3Cc2ccc(Cl)cc2)CO1	0.794 µM [rising, full curve]
CCCC(=O)Nc1nnc(Sc2ccc(N(C)C)cc2)s1	2.51 µM [rising, partial curve]
COc1ccc(C2C(C(=O)O)CC(=O)N2c2ccc(OC)cc2)cc1 (stereo unspecified)	25.1 µM [falling, single point]
Cn1c(=O)c2c(nc(SCCCC#N)n2Cc2ccccc2F)n(C)c1=O	10 µM [rising, single point]
CC(C)[C@@H](CC(=O)N[C@@H]1CCNC[C@H]1C(=O)N[C@H](CC(=O)N[C@@H](CCC(=O)O)CC(=O)O)Cc1ccccc1)NC(=O)C[C@H](Cc1c[nH]c2ccccc12)NC(=O)[C@@H]1CCCC[C@H]1N	15.8 µM [falling, partial curve]
Cc1ccc(NC2c3ncccc3C(=O)N2C2CCCCC2)cc1 (stereo unspecified)	1.26 µM [rising, full curve, poor fit]
CCCOc1ccc2oc(=O)c3c(c2c1)CCCN3C(=O)CN1CCc2ccccc2C1	3.98 µM [rising, full curve, poor fit]
NC(=O)C(F)(F)C12OC3C4C5CC(C6C5C3C61)C42 (stereo unspecified)	5.01 µM [falling, single point]
COC(=O)C1=C(C)NC(C)=C(C(=O)OC)C1c1ccccc1[N+](=O)[O-]	10 µM [rising, partial curve] and 12.6 µM [rising, partial curve] and 5.01 µM [rising, partial curve]
CCC(=O)N(CC)c1nc(-c2ccc(OC)cc2)cs1	3.16 µM [rising, single point]
CN(C)c1ncc2nc(-c3ccc(Cl)cc3)c(=O)n(C3CC3)c2n1	2.51 µM [rising, full curve]
Cn1cccc1C(=O)N1CCC2(CC1)CN(c1ccccn1)C2	25.1 µM [rising, single point]
O=c1c(-c2ccccc2)[n+]([O-])c2ccccc2n1O	25.1 µM [rising, single point]
CN(C)c1ccc(-c2nc(-n3ccnc3)c3ccccc3n2)cc1	10 µM [rising, partial curve]
CC(C)C(C)(C#N)NC(=O)CSc1nc2scc(-c3ccco3)c2c(=O)n1-c1ccccc1 (stereo unspecified)	10 µM [rising, partial curve]
CCn1c(=O)cc(OCC(=O)N2CCN(C(=O)c3ccco3)CC2)c2ccccc21	25.1 µM [rising, partial curve, poor fit]
Cc1cc2c(cc(C(=O)O)n2C)s1	0.0251 µM [falling, full curve, poor fit]
O=c1cnc2cnc(N3CCNCC3)nc2n1Cc1ccc(F)cc1	12.6 µM [rising, single point]
COc1ccc(CCNS(=O)(=O)c2ccccc2)cc1OC	0.00398 µM [falling, full curve, poor fit]

Structure (SMILES)	AC50
O=C(Cc1cccs1)N(Cc1ccco1)C1(C(=O)NC2CCCC2)CCCCC1	7.94 µM [rising, partial curve, poor fit]
N#C/C=C1\n2c(nc3ccccc32)OC12CCCCC2	10 µM [rising, partial curve]
O=C1CSC(c2cn(-c3ccccc3)nc2-c2cccs2)N1CC1CCCO1 (stereo unspecified)	10 µM [rising, partial curve]
Cc1ccc(-c2nnn(CC(=O)Nc3ccccc3N3CCOCC3)n2)cc1	10 µM [rising, partial curve]
COC(=O)c1ccc(CSc2nc3c(cnn3-c3ccc(C)cc3)c(=O)[nH]2)o1	0.316 µM [rising, full curve]
CCN(CC)C(=O)CSC(=Nc1ccccc1F)NC#N	0.501 µM [falling, full curve, poor fit]
CC(C)Cn1c(=O)c(C(=O)NCc2ccccn2)c(O)c2ccccc21	0.794 µM [rising, full curve, poor fit]
OC(COc1c(Br)cc(Br)cc1Br)CN1CCOCC1 (stereo unspecified)	10 µM [rising, single point]
CCOC(=O)Cc1nnc(NC(=O)CSc2ccccc2)s1	15.8 µM [falling, single point]
Cc1ccc(NC(=O)COC(=O)C2CCC(=O)N2)c(S(=O)(=O)N2CCOCC2)c1 (stereo unspecified)	0.00398 µM [falling, full curve, poor fit]
CCn1c(=NC(=O)CSC(C)=O)sc2ccccc21	0.2 µM [falling, full curve, poor fit]
Cc1ccc(CNC(=O)c2cn(C3CCCCC3)c(=O)c3c2c2ccccc2n3C)o1	5.01 µM [rising, partial curve]
Cc1coc2cc3oc(=O)c4c(c3cc12)CCCC4	0.00398 µM [falling, full curve, poor fit]
O=C(CCNC(=O)c1ccc(Br)o1)NCc1ccccn1	5.01 µM [rising, single point]
Cn1c(=O)c2c(-c3ccccc3)n3c4ccccc4ncc3c2n(C)c1=O	5.01 µM [rising, partial curve, poor fit]
COc1ccccc1CCNC(=O)c1cnn2c(C(F)F)cc(C)nc12	15.8 µM [rising, partial curve]
Nc1[nH]nc2nc3ccccc3nc12	25.1 µM [falling, single point]
Cc1cc(C(=O)Cn2nnc3ccccc3c2=O)c(C)n1-c1c(C)n(C)n(-c2ccccc2)c1=O	25.1 µM [rising, single point]
COc1ccc(Nc2ncnc3c2cnn3Cc2ccccc2)cc1	10 µM [rising, partial curve]
COc1ccc2c(c1)c1ncn(Cc3ccco3)c(=O)c1n2C	0.398 µM [rising, full curve]
CCN1C(=O)c2c(C)nc3ccccc3c2C1=O	6.31 µM [rising, partial curve]
Cc1ccc(CCNC(=O)c2nnn(-c3cc(C)cc(C)c3)c2N)cc1	6.31 µM [falling, partial curve, poor fit]

Shown comma-delimited: entries from further up.
Structure (SMILES),AC50
CC(C)C(C)(C#N)NC(=O)CSc1nc2scc(-c3ccco3)c2c(=O)n1-c1ccccc1 (stereo unspecified),"10 µM [rising, partial curve]"
CCn1c(=O)cc(OCC(=O)N2CCN(C(=O)c3ccco3)CC2)c2ccccc21,"25.1 µM [rising, partial curve, poor fit]"
